According to publication PMC4281356 (Acta Neurochirurgica, 2014):
Some peptides are written in HELM: one residue between dots, names in brackets for other building blocks, links after the first $.

Test: peptide made by a vendor
Conditions: whole synthesis, amino acid analysis and mass spectrometry

Substance: PEPTIDE1{V.C.H.S.K.T.R.S.N.P.E.N.N.V.G.L}$$$$V2.0
- final purity (method not given): about 97%
